# Data reported in the supplement of paper PMC8728848.
# The list shows a part of the results.
# Key:
# Test in all cases: glycan array binding signal (z-score within array); higher = stronger binding
# Settings in all cases: glycan notation: IUPAC condensed, linker removed; mutation: Y54A
# Glc(b1-4)Glc = biological target: Glc(b1-4)Glc
# How it was run: (§1)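 Arrays were curated from the Consortium for Functional Glycomics database, 3228 in total, and kept only where the protein sequence was available. Binding is expressed as a within-array Z-score. This score was averaged across arrays of the same protein sequence at different concentrations or buffers and across linkers, and negative values can be read as non-binding.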
# Glc(b1-6)Glc = biological target: Glc(b1-6)Glc
# How it was run: as §1
# GlcA(b1-3)Gal = biological target: GlcA(b1-3)Gal
# How it was run: as §1
# GlcA(b1-3)GlcNAc = biological target: GlcA(b1-3)GlcNAc
# How it was run: as §1
# GlcA(b1-6)Gal = biological target: GlcA(b1-6)Gal
# How it was run: as §1
# [1] = biological target: GlcA3S(b1-3)Gal(b1-4)GlcNAc(b1-2)Man
# How it was run: as §1
# [2] = biological target: GlcA3S(b1-3)Gal(b1-4)GlcNAc(b1-3)Gal(b1-4)Glc
# How it was run: as §1
# [3] = biological target: GlcNAc(a1-3)Gal(b1-4)GlcNAc
# How it was run: as §1
# [4] = biological target: GlcNAc(a1-4)Gal(b1-3)GlcNAc
# How it was run: as §1
# [5] = biological target: GlcNAc(a1-4)Gal(b1-4)GalNAc
# How it was run: as §1
# [6] = biological target: GlcNAc(a1-4)Gal(b1-4)GlcNAc
# How it was run: as §1
# [7] = biological target: GlcNAc(a1-4)Gal(b1-4)GlcNAc(b1-3)Gal(b1-4)Glc
# How it was run: as §1
# [8] = biological target: GlcNAc(a1-4)Gal(b1-4)GlcNAc(b1-3)Gal(b1-4)GlcNAc
# How it was run: as §1
# [9] = biological target: GlcNAc(a1-4)Gal(b1-4)GlcNAc(b1-3)Gal(b1-4)GlcNAc(b1-3)Gal(b1-4)GlcNAc
# How it was run: as §1
# [10] = biological target: GlcNAc(a1-4)Gal(b1-4)GlcNAc(b1-3)Gal(b1-4)[Fuc(a1-3)]GlcNAc(b1-3)Gal(b1-4)[Fuc(a1-3)]GlcNAc
# How it was run: as §1
# [11] = biological target: GlcNAc(a1-6)Gal(b1-4)GlcNAc
# How it was run: as §1
# [12] = biological target: GlcNAc(b1-2)Gal(b1-3)GalNAc
# How it was run: as §1
# [13] = biological target: GlcNAc(b1-2)Man(a1-3)[GlcNAc(b1-2)Man(a1-6)]Man(b1-4)GlcNAc(b1-4)GlcNAc
# How it was run: as §1
# [14] = biological target: GlcNAc(b1-2)Man(a1-3)[GlcNAc(b1-2)Man(a1-6)]Man(b1-4)GlcNAc(b1-4)[Fuc(a1-6)]GlcNAc
# How it was run: as §1
# [15] = biological target: GlcNAc(b1-2)Man(a1-3)[GlcNAc(b1-4)][GlcNAc(b1-2)Man(a1-6)]Man(b1-4)GlcNAc(b1-4)GlcNAc
# How it was run: as §1
# [16] = biological target: GlcNAc(b1-2)Man(a1-3)[GlcNAc(b1-4)][GlcNAc(b1-2)Man(a1-6)]Man(b1-4)GlcNAc(b1-4)[Fuc(a1-6)]GlcNAc
# How it was run: as §1
# [17] = biological target: GlcNAc(b1-2)[GlcNAc(b1-4)]Man(a1-3)[GlcNAc(b1-2)Man(a1-6)]Man(b1-4)GlcNAc(b1-4)GlcNAc
# How it was run: as §1
# [18] = biological target: GlcNAc(b1-2)[GlcNAc(b1-4)]Man(a1-3)[GlcNAc(b1-4)][GlcNAc(b1-2)Man(a1-6)]Man(b1-4)GlcNAc(b1-4)GlcNAc
# How it was run: as §1
# [19] = biological target: GlcNAc(b1-2)[GlcNAc(b1-4)]Man(a1-3)[GlcNAc(b1-4)][GlcNAc(b1-2)[GlcNAc(b1-6)]Man(a1-6)]Man(b1-4)GlcNAc(b1-4)GlcNAc
# How it was run: as §1
# [20] = biological target: GlcNAc(b1-2)[GlcNAc(b1-4)]Man(a1-3)[GlcNAc(b1-4)][GlcNAc(b1-2)[GlcNAc(b1-6)]Man(a1-6)]Man(b1-4)GlcNAc(b1-4)[Fuc(a1-6)]GlcNAc
# How it was run: as §1
# [21] = biological target: GlcNAc(b1-2)[GlcNAc(b1-6)]Man(a1-6)[GlcNAc(b1-2)Man(a1-3)]Man(b1-4)GlcNAc(b1-4)GlcNAc
# How it was run: as §1
# [22] = biological target: GlcNAc(b1-2)[GlcNAc(b1-6)]Man(a1-6)[GlcNAc(b1-2)Man(a1-3)]Man(b1-4)GlcNAc(b1-4)[Fuc(a1-6)]GlcNAc
# How it was run: as §1
# [23] = biological target: GlcNAc(b1-2)[GlcNAc(b1-6)]Man(a1-6)[GlcNAc(b1-4)][GlcNAc(b1-2)Man(a1-3)]Man(b1-4)GlcNAc(b1-4)GlcNAc
# How it was run: as §1
# GlcNAc(b1-3)Fuc = biological target: GlcNAc(b1-3)Fuc
# How it was run: as §1
# GlcNAc(b1-3)Gal = biological target: GlcNAc(b1-3)Gal
# How it was run: as §1
# [24] = biological target: GlcNAc(b1-3)Gal(b1-3)GalNAc
# How it was run: as §1
# GlcNAc(b1-3)Gal(b1-4)Glc = biological target: GlcNAc(b1-3)Gal(b1-4)Glc
# How it was run: as §1
# [25] = biological target: GlcNAc(b1-3)Gal(b1-4)GlcNAc
# How it was run: as §1
# [26] = biological target: GlcNAc(b1-3)Gal(b1-4)GlcNAc(b1-2)Man(a1-3)[GlcNAc(b1-3)Gal(b1-4)GlcNAc(b1-2)Man(a1-6)]Man(b1-4)GlcNAc(b1-4)GlcNAc
# How it was run: as §1
# [27] = biological target: GlcNAc(b1-3)Gal(b1-4)GlcNAc(b1-2)Man(a1-3)[GlcNAc(b1-3)Gal(b1-4)GlcNAc(b1-2)Man(a1-6)]Man(b1-4)GlcNAc(b1-4)[Fuc(a1-6)]GlcNAc
# How it was run: as §1
# [28] = biological target: GlcNAc(b1-3)Gal(b1-4)GlcNAc(b1-2)[GlcNAc(b1-3)Gal(b1-4)GlcNAc(b1-6)]Man(a1-6)[GlcNAc(b1-3)Gal(b1-4)GlcNAc(b1-2)Man(a1-3)]Man(b1-4)GlcNAc(b1-4)GlcNAc
# How it was run: as §1
# [29] = biological target: GlcNAc(b1-3)Gal(b1-4)GlcNAc(b1-3)Gal(b1-4)GlcNAc
# How it was run: as §1
# [30] = biological target: GlcNAc(b1-3)Gal(b1-4)GlcNAc(b1-3)Gal(b1-4)GlcNAc(b1-2)Man(a1-3)[GlcNAc(b1-3)Gal(b1-4)GlcNAc(b1-3)Gal(b1-4)GlcNAc(b1-2)Man(a1-6)]Man(b1-4)GlcNAc(b1-4)GlcNAc
# How it was run: as §1
# [31] = biological target: GlcNAc(b1-3)Gal(b1-4)GlcNAc(b1-3)Gal(b1-4)GlcNAc(b1-2)Man(a1-3)[GlcNAc(b1-3)Gal(b1-4)GlcNAc(b1-3)Gal(b1-4)GlcNAc(b1-2)Man(a1-6)]Man(b1-4)GlcNAc(b1-4)[Fuc(a1-6)]GlcNAc
# How it was run: as §1
# [32] = biological target: GlcNAc(b1-3)Gal(b1-4)GlcNAc(b1-3)Gal(b1-4)GlcNAc(b1-2)[GlcNAc(b1-3)Gal(b1-4)GlcNAc(b1-3)Gal(b1-4)GlcNAc(b1-6)]Man(a1-6)[GlcNAc(b1-3)Gal(b1-4)GlcNAc(b1-3)Gal(b1-4)GlcNAc(b1-2)Man(a1-3)]Man(b1-4)GlcNAc(b1-4)[Fuc(a1-6)]GlcNAc
# How it was run: as §1
# [33] = biological target: GlcNAc(b1-3)Gal(b1-4)GlcNAc(b1-3)Gal(b1-4)GlcNAc(b1-3)Gal(b1-4)GlcNAc(b1-2)Man(a1-3)[GlcNAc(b1-3)Gal(b1-4)GlcNAc(b1-3)Gal(b1-4)GlcNAc(b1-3)Gal(b1-4)GlcNAc(b1-2)Man(a1-6)]Man(b1-4)GlcNAc(b1-4)GlcNAc
# How it was run: as §1
# [34] = biological target: GlcNAc(b1-3)Gal(b1-4)GlcNAc(b1-3)Gal(b1-4)GlcNAc(b1-3)Gal(b1-4)GlcNAc(b1-2)Man(a1-3)[GlcNAc(b1-3)Gal(b1-4)GlcNAc(b1-3)Gal(b1-4)GlcNAc(b1-3)Gal(b1-4)GlcNAc(b1-2)Man(a1-6)]Man(b1-4)GlcNAc(b1-4)[Fuc(a1-6)]GlcNAc
# How it was run: as §1
# [35] = biological target: GlcNAc(b1-3)Gal(b1-4)GlcNAc(b1-3)Gal(b1-4)GlcNAc(b1-3)Gal(b1-4)GlcNAc(b1-2)[GlcNAc(b1-3)Gal(b1-4)GlcNAc(b1-3)Gal(b1-4)GlcNAc(b1-3)Gal(b1-4)GlcNAc(b1-6)]Man(a1-6)[GlcNAc(b1-3)Gal(b1-4)GlcNAc(b1-3)Gal(b1-4)GlcNAc(b1-3)Gal(b1-4)GlcNAc(b1-2)Man(a1-3)]Man(b1-4)GlcNAc(b1-4)[Fuc(a1-6)]GlcNAc
# How it was run: as §1
# [36] = biological target: GlcNAc(b1-3)Gal(b1-4)GlcNAc(b1-3)Gal(b1-4)GlcNAc(b1-3)Gal(b1-4)GlcNAc(b1-3)Gal(b1-4)GlcNAc(b1-2)Man(a1-3)[GlcNAc(b1-3)Gal(b1-4)GlcNAc(b1-3)Gal(b1-4)GlcNAc(b1-3)Gal(b1-4)GlcNAc(b1-3)Gal(b1-4)GlcNAc(b1-2)Man(a1-6)]Man(b1-4)GlcNAc(b1-4)GlcNAc
# How it was run: as §1
# [37] = biological target: GlcNAc(b1-3)Gal(b1-4)GlcNAc(b1-3)Gal(b1-4)GlcNAc(b1-3)Gal(b1-4)GlcNAc(b1-3)Gal(b1-4)GlcNAc(b1-2)Man(a1-3)[GlcNAc(b1-3)Gal(b1-4)GlcNAc(b1-3)Gal(b1-4)GlcNAc(b1-3)Gal(b1-4)GlcNAc(b1-3)Gal(b1-4)GlcNAc(b1-2)Man(a1-6)]Man(b1-4)GlcNAc(b1-4)[Fuc(a1-6)]GlcNAc
# How it was run: as §1
binder,measurement,setting,value
"CBP21 (Serratia marcescens), O83009 (protein) MNKTSRTLLSLGLLSAAMFGVSQQANAHGYVESPASRAYQCKLQLNTQCGSVQAEPQSVEGLKGFPQAGPADGHIASADKSTFFELDQQTPTRWNKLNLKTGPNSFTWKLTARHSTTSWRYFITKPNWDASQPLTRASFDLTPFCQFNDGGAIPAAQVTHQCNIPADRSGSHVILAVWDIADTANAFYQAIDVNLSK",glycan array binding signal (z-score),Glc(b1-4)Glc,-0.067
same,glycan array binding signal (z-score),Glc(b1-6)Glc,-0.267
same,glycan array binding signal (z-score),GlcA(b1-3)Gal,-0.275
same,glycan array binding signal (z-score),GlcA(b1-3)GlcNAc,-0.631
same,glycan array binding signal (z-score),GlcA(b1-6)Gal,0.189
same,glycan array binding signal (z-score),[1],-0.696
same,glycan array binding signal (z-score),[2],-0.278
same,glycan array binding signal (z-score),[3],1.94
same,glycan array binding signal (z-score),[4],-0.693
same,glycan array binding signal (z-score),[5],-0.35
same,glycan array binding signal (z-score),[6],-0.022
same,glycan array binding signal (z-score),[7],-0.876
same,glycan array binding signal (z-score),[8],-1.2
same,glycan array binding signal (z-score),[9],0.011
same,glycan array binding signal (z-score),[10],0.189
same,glycan array binding signal (z-score),[11],-0.367
same,glycan array binding signal (z-score),[12],-0.7
same,glycan array binding signal (z-score),[13],0.384
same,glycan array binding signal (z-score),[14],0.33
same,glycan array binding signal (z-score),[15],-0.76
same,glycan array binding signal (z-score),[16],-0.472
same,glycan array binding signal (z-score),[17],-0.533
same,glycan array binding signal (z-score),[18],1.27
same,glycan array binding signal (z-score),[19],0.29
same,glycan array binding signal (z-score),[20],0.198
same,glycan array binding signal (z-score),[21],0.82
same,glycan array binding signal (z-score),[22],0.904
same,glycan array binding signal (z-score),[23],1.86
same,glycan array binding signal (z-score),GlcNAc(b1-3)Fuc,-0.348
same,glycan array binding signal (z-score),GlcNAc(b1-3)Gal,-1.08
same,glycan array binding signal (z-score),[24],1.43
same,glycan array binding signal (z-score),GlcNAc(b1-3)Gal(b1-4)Glc,0.599
same,glycan array binding signal (z-score),[25],-0.779
same,glycan array binding signal (z-score),[26],0.437
same,glycan array binding signal (z-score),[27],-2.24
same,glycan array binding signal (z-score),[28],-0.141
same,glycan array binding signal (z-score),[29],-1.2
same,glycan array binding signal (z-score),[30],0.016
same,glycan array binding signal (z-score),[31],-0.869
same,glycan array binding signal (z-score),[32],-0.223
same,glycan array binding signal (z-score),[33],-0.609
same,glycan array binding signal (z-score),[34],-0.372
same,glycan array binding signal (z-score),[35],0.727
same,glycan array binding signal (z-score),[36],2.04
same,glycan array binding signal (z-score),[37],-0.624
